The results in this text go back to PubChem BioAssay AID220 (DTP/NCI, 2004).

The assay concerns CD8F1 mice, subcutaneous mammary adenocarcinoma, T/C%. The assay can be described thus: NCI In Vivo Anticancer Drug Screen. Data for tumor model Mammary Adenocarcinoma CD8F1 (subcutaneous) in CD8F1. As to conditions: higher T/C = larger tumour. A digest of the protocol:
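Transplantable tumors were established in mice, animals were dosed with compound or vehicle, and survival or tumor size was then measured in both groups. The treated result was divided by the control result.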

The mark [1] stands for this setting: T/C endpoint: median tumor weight change, dose: 1000.0 mg/kg/injection, schedule: Q01DX001 (ip), vehicle: saline with Tween-80.
Setting [2] is: T/C endpoint: median tumor weight change, dose: 2000.0 mg/kg/injection, schedule: Q01DX001 (ip), vehicle: Klucel (hydroxypropylcellulose) (HPC).
Where [3] appears, read: T/C endpoint: median tumor weight change, dose: 250.0 mg/kg/injection, schedule: Q01DX001 (ip), vehicle: saline with Tween-80.

The list is a part of this screen's results and no random one: it gathers tests that were run many times, whatever their T/C, doses with no T/C, and many T/C values between a quarter and a half above the control. Further doses and runs are listed elsewhere. T/C: endpoint of the treated group in % of that of the vehicle group. Schedules are NCI's codes, taken here to give the interval after Q, in days (D) or hours (H), and the number of doses after X. Some T/C values carry the count of animals alive at the toxicity check (mostly the fifth day); where none is given, no animal had died by that day. Some doses have a count of surviving animals in place of a T/C: the source files T/C as zero there, which appears to mark a toxic dose or a test without result, not a measured value. Counts of survivors are from the toxicity check (mostly the fifth day) where no day follows; animals may have died later. Some entries hold several experiments; their values stand side by side, smallest first.

Regarding `COC1(OC)C2C=CC1CC2`, the survivor count under setting [1] is 1 of 10 on day 36.
Consider `CSc1ncc2ncn(C3OC(CO)C(O)C3O)c2n1` (stereo not drawn), for which, for the setting “T/C endpoint: median tumor weight change, dose: 125.0 mg/kg/injection, schedule: Q01DX001 (ip), vehicle: Klucel (hydroxypropylcellulose) (HPC), evaluated on day 31”, the T/C was 132 % of control. For the same molecule, under setting [2], the survivor count is 2 of 10 on day 31.
Take `COC1/C=C/O[C@@]2(C)Oc3c(C)c(O)c4c(O)c(cc(O)c4c3C2=O)NC(=O)/C(C)=C\C=C\[C@H](C)C(O)[C@@H](C)[C@@H](O)[C@@H](C)[C@H](OC(C)=O)[C@@H]1C` (stereo partly drawn): the T/C by setting is: (T/C endpoint: median tumor weight change, dose: 62.0 mg/kg/injection, schedule: Q01DX001 (ip), vehicle: saline with Tween-80, evaluated on day 25) 142 % of control; (T/C endpoint: median tumor weight change, dose: 125.0 mg/kg/injection, schedule: Q01DX001 (ip), vehicle: saline with Tween-80, evaluated on day 25) 138 % of control; (T/C endpoint: median tumor weight change, dose: 250.0 mg/kg/injection, schedule: Q01DX001 (ip), vehicle: saline with Tween-80, evaluated on day 25) 146 % of control; (T/C endpoint: median tumor weight change, dose: 500.0 mg/kg/injection, schedule: Q01DX001 (ip), vehicle: saline with Tween-80, evaluated on day 25) 144 % of control. Also, the survivor count under setting [1] is 1 of 10 on day 29 and 3 of 10 on day 25.
As for `CN1CCN(c2ccc([N+](=O)[O-])c3no[n+]([O-])c23)CC1`, the survivor count reads like this: (T/C endpoint: median tumor weight (est.), dose: 40.0 mg/kg/injection, schedule: Q07DX005 (ip), vehicle: saline with Tween-80) 6 of 10 on day 30; (T/C endpoint: median tumor weight (est.), dose: 80.0 mg/kg/injection, schedule: Q07DX005 (ip), vehicle: saline with Tween-80) 0 of 10 on day 30; (T/C endpoint: median tumor weight (est.), dose: 160.0 mg/kg/injection, schedule: Q07DX005 (ip), vehicle: saline with Tween-80) 0 of 10 on day 30.
For `CN(C)/N=N/c1nc[nH]c1C(N)=O`, where the note is “T/C endpoint: median tumor weight (est.), dose: 800.0 mg/kg/injection, schedule: Q07DX004 (ip), vehicle: saline”, the survivor count is 5 of 10.
In the case of `CN=S(=O)(OCCCCCOS(=O)(=NC)c1ccccc1)c1ccccc1` (stereo not drawn), for the setting “T/C endpoint: median tumor weight change, dose: 62.5 mg/kg/injection, schedule: Q01DX001 (ip), vehicle: saline with Tween-80, evaluated on day 40”, the T/C was 142 % of control. For the same molecule, the survivor count runs as follows: under setting [3], 2 of 10 on day 29; (T/C endpoint: median tumor weight change, dose: 500.0 mg/kg/injection, schedule: Q01DX001 (ip), vehicle: saline with Tween-80) 0 of 10 on day 29 and 3 of 5 on day 28.
Regarding `CC(C)(C)N1CC1CNC(=O)C(=O)NCC1CN1C(C)(C)C` (stereo not drawn), where the note is “T/C endpoint: median tumor weight change, dose: 7.81 mg/kg/injection, schedule: Q01DX001 (ip), vehicle: saline with Tween-80, evaluated on day 34”, the T/C was 140 % of control. The survivor count runs as follows: (T/C endpoint: median tumor weight change, dose: 62.5 mg/kg/injection, schedule: Q01DX001 (ip), vehicle: saline with Tween-80) 4 of 10 on day 26 and 5 of 10 on day 34; (T/C endpoint: median tumor weight change, dose: 125.0 mg/kg/injection, schedule: Q01DX001 (ip), vehicle: saline with Tween-80) 0 of 10 on day 26 and 0 of 10 on day 34; under setting [3], 0 of 10 on day 26 and 0 of 10 on day 34.
Consider `CCCCN(CCCC)C(Cl)=Nc1ccccc1`, for which the T/C reads like this: (T/C endpoint: median tumor weight change, dose: 62.5 mg/kg/injection, schedule: Q01DX001 (ip), vehicle: Klucel (hydroxypropylcellulose) (HPC), evaluated on day 29) 125 % of control; (T/C endpoint: median tumor weight change, dose: 62.5 mg/kg/injection, schedule: Q01DX001 (ip), vehicle: Klucel (hydroxypropylcellulose) (HPC), evaluated on day 32) 149 % of control. Further, the survivor count is, setting by setting: (T/C endpoint: median tumor weight change, dose: 250.0 mg/kg/injection, schedule: Q01DX001 (ip), vehicle: Klucel (hydroxypropylcellulose) (HPC)) 3 of 10 on day 32 and 6 of 10 on day 29; (T/C endpoint: median tumor weight change, dose: 500.0 mg/kg/injection, schedule: Q01DX001 (ip), vehicle: Klucel (hydroxypropylcellulose) (HPC)) 0 of 10 on day 29 and 0 of 10 on day 32; (T/C endpoint: median tumor weight change, dose: 1000.0 mg/kg/injection, schedule: Q01DX001 (ip), vehicle: Klucel (hydroxypropylcellulose) (HPC)) 0 of 10 on day 32 and 2 of 10 on day 29.
With `CCN(CC)CC[n+]1ccc2c(C)c3[nH]c4ccc(O)cc4c3c(C)c2c1`, the survivor count runs as follows: (T/C endpoint: median tumor weight change, dose: 120.0 mg/kg/injection, schedule: Q01DX001 (ip), vehicle: suspension in saline) 0 of 10 on day 36 and 2 of 10 on day 34; (T/C endpoint: median tumor weight change, dose: 125.0 mg/kg/injection, schedule: Q01DX001 (ip), vehicle: suspension in saline) 0 of 10 on day 25, 0 of 10 on day 28, 1 of 10 on day 35, 3 of 10 on day 38; (T/C endpoint: median tumor weight change, dose: 250.0 mg/kg/injection, schedule: Q01DX001 (ip), vehicle: suspension in saline) 0 of 10 on day 25, 0 of 10 on day 28, 1 of 10 on day 38.
On to `COc1cc(C(=O)c2cocc2C(=O)c2ccc3c(c2)OCO3)cc(OC)c1OC`, for which, under setting [2], the survivor count is listed as 0 of 10 on day 32.
For the molecule `[Cl][Sn]([c]1ccccc1)[c]1ccccc1`, the survivor count (T/C endpoint: median tumor weight change, dose: 50.0 mg/kg/injection, schedule: Q01DX001 (ip), vehicle: water) is 6 of 10 on day 29; the survivor count (T/C endpoint: median tumor weight change, dose: 100.0 mg/kg/injection, schedule: Q01DX001 (ip), vehicle: water) is reported as 1 of 10 on day 29; the survivor count (T/C endpoint: median tumor weight change, dose: 200.0 mg/kg/injection, schedule: Q01DX001 (ip), vehicle: water) was 0 of 10 on day 29; the survivor count (T/C endpoint: median tumor weight change, dose: 400.0 mg/kg/injection, schedule: Q01DX001 (ip), vehicle: water) is 0 of 10 on day 29; the survivor count (T/C endpoint: median tumor weight change, dose: 800.0 mg/kg/injection, schedule: Q01DX001 (ip), vehicle: water) is on record as 0 of 10 on day 29.
Consider `CC[C@@]1(O)C(=O)OCc2c1cc1n(c2=O)Cc2cc3cc(O)ccc3nc2-1`, for which the T/C (T/C endpoint: median tumor weight change, dose: 3.75 mg/kg/injection, schedule: Q01DX001 (ip), vehicle: saline, evaluated on day 35) was 130 % of control.
On to `Cc1nc(N)nc(N)c1-c1ccc(Cl)c(Cl)c1`, for which, under “T/C endpoint: mean tumor weight (est.), dose: 5.0 mg/kg/injection, schedule: Q07DX003 (ip), vehicle: saline with Tween-80, evaluated on day 70”, the T/C was 127 % of control [7 of 10 alive]. The survivor count was 1 of 10 on day 28 (T/C endpoint: median tumor weight change, dose: 100.0 mg/kg/injection, schedule: Q01DX001 (ip), vehicle: saline with Tween-80); 4 of 10 on day 36 and 5 of 10 on day 27 (T/C endpoint: median tumor weight change, dose: 100.0 mg/kg/injection, schedule: Q01DX001 (ip), vehicle: suspension in saline); 0 of 10 on day 28 (T/C endpoint: median tumor weight change, dose: 200.0 mg/kg/injection, schedule: Q01DX001 (ip), vehicle: saline with Tween-80); 0 of 10 on day 36 (T/C endpoint: median tumor weight change, dose: 200.0 mg/kg/injection, schedule: Q01DX001 (ip), vehicle: suspension in saline).
Take `CC(C)CC(NC(=O)CF)C(=O)O` (stereo not drawn): for the setting “T/C endpoint: median tumor weight (est.), dose: 1.25 mg/kg/injection, schedule: Q07DX005 (ip), vehicle: saline, evaluated on day 30”, the T/C is 141 % of control. For the same molecule, the survivor count (T/C endpoint: median tumor weight (est.), dose: 20.0 mg/kg/injection, schedule: Q07DX005 (ip), vehicle: saline) is given as 3 of 10 on day 30.
As to `CC(=O)CC(=O)CCC(=O)O`, the T/C (T/C endpoint: median tumor weight change, dose: 62.5 mg/kg/injection, schedule: Q01DX001 (ip), vehicle: saline, evaluated on day 32) is 142 % of control. Also, the survivor count by setting is: (T/C endpoint: median tumor weight change, dose: 500.0 mg/kg/injection, schedule: Q01DX001 (ip), vehicle: saline) 4 of 10 on day 32; (T/C endpoint: median tumor weight change, dose: 1000.0 mg/kg/injection, schedule: Q01DX001 (ip), vehicle: saline) 0 of 10 on day 32.
Consider `NCCCNCCSP(=O)(O)O`, for which the survivor count (T/C endpoint: median tumor weight (est.), dose: 800.0 mg/kg/injection, schedule: Q07DX005 (ip), vehicle: saline with Tween-80) is listed as 0 of 10 on day 30.
As to `CCCNC1=C(C)C(=O)C2=C(C1=O)[C@H](COC(N)=O)[C@]1(OC)[C@@H]3N[C@@H]3CN21`, the survivor count is recorded as 0 of 10 on day 33 (T/C endpoint: median tumor weight change, dose: 30.0 mg/kg/injection, schedule: Q01DX001 (ip), vehicle: saline) and 0 of 10 on day 33 (T/C endpoint: median tumor weight change, dose: 60.0 mg/kg/injection, schedule: Q01DX001 (ip), vehicle: saline).
Take `Cc1c(N)nc(C(CC(N)=O)NCC(N)C(N)=O)nc1C(=O)NC(C(=O)NC(C)C(O)C(C)C(=O)NC(C(=O)NCCc1nc(-c2nc(C(=O)NCCCNCCCc3ccccn3)cs2)cs1)C(C)O)C(OC1OC(CO)C(O)C(O)C1OC1OC(CO)C(O)C(OC(N)=O)C1O)c1cnc[nH]1` (stereo not drawn): the T/C (T/C endpoint: median tumor weight (est.), dose: 3.0 mg/kg/injection, schedule: Q07DX005 (ip), vehicle: water, evaluated on day 30) is 127 % of control.
